This is one part of the list. Most entries show no effect beyond the scatter of the controls.

Chains of the proteins cited; added tags and fusions are not shown. Lines headed by an entry give the natural chain unless they say otherwise; changes in a name come on top.
UniProt Q15051: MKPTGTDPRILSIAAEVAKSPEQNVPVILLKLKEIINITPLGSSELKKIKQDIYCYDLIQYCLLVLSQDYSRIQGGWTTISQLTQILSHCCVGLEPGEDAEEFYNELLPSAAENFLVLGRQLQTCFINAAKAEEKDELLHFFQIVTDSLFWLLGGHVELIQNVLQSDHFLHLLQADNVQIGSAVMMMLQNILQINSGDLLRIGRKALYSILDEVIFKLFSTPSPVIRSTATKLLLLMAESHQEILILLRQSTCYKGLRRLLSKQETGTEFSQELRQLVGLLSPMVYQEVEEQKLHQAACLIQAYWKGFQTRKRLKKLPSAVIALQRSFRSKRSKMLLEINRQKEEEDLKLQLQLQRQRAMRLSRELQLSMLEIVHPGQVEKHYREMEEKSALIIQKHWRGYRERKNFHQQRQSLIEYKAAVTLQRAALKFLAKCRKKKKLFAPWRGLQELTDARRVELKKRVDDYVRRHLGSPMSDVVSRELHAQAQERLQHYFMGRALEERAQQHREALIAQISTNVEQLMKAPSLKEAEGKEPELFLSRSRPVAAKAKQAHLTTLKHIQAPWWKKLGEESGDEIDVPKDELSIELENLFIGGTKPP
UniProt Q16656: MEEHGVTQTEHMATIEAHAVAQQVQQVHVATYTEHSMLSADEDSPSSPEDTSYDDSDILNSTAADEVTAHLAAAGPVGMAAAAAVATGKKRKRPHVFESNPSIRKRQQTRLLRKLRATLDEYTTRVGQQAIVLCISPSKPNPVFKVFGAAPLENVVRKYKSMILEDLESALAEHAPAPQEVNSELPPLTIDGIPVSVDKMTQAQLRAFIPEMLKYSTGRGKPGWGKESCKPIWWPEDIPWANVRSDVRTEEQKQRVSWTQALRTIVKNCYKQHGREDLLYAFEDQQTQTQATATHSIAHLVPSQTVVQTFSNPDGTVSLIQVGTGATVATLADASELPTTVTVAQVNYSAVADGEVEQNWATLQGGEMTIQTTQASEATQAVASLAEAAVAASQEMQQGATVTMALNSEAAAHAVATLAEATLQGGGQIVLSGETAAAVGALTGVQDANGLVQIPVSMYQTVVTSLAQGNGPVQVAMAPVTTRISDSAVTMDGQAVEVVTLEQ
UniProt Q15651: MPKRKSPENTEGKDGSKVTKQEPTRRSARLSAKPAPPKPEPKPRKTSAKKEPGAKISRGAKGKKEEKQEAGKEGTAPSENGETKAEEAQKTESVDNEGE
UniProt Q16763: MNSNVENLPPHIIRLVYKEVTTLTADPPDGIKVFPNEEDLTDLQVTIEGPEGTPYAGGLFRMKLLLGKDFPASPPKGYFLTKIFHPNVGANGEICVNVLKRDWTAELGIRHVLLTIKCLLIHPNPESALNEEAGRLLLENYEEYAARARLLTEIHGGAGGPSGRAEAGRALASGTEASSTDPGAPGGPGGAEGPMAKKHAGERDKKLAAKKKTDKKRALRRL
UniProt Q15907: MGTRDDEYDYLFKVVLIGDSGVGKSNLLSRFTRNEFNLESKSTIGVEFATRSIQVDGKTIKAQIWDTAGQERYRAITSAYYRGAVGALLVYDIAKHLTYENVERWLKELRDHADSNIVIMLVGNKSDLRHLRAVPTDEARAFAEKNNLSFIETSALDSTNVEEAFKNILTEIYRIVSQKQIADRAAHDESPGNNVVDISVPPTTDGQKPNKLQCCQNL
UniProt Q15046, whole entry, looked up: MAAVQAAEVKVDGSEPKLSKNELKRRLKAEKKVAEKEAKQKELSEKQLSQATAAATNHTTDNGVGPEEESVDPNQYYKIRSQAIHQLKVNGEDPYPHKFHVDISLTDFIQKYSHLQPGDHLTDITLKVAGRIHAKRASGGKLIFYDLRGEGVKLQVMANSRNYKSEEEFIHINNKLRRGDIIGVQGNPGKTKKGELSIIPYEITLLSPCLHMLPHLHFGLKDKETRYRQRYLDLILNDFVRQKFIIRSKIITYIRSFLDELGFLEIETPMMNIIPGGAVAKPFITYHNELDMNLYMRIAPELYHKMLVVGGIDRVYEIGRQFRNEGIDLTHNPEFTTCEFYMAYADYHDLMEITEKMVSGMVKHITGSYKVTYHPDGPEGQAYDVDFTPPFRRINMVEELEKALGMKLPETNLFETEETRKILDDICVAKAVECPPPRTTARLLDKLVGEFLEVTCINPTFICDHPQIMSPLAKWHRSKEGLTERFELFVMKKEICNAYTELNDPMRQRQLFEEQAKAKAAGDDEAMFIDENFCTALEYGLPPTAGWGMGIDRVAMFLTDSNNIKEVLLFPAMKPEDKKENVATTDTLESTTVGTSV
UniProt Q15436: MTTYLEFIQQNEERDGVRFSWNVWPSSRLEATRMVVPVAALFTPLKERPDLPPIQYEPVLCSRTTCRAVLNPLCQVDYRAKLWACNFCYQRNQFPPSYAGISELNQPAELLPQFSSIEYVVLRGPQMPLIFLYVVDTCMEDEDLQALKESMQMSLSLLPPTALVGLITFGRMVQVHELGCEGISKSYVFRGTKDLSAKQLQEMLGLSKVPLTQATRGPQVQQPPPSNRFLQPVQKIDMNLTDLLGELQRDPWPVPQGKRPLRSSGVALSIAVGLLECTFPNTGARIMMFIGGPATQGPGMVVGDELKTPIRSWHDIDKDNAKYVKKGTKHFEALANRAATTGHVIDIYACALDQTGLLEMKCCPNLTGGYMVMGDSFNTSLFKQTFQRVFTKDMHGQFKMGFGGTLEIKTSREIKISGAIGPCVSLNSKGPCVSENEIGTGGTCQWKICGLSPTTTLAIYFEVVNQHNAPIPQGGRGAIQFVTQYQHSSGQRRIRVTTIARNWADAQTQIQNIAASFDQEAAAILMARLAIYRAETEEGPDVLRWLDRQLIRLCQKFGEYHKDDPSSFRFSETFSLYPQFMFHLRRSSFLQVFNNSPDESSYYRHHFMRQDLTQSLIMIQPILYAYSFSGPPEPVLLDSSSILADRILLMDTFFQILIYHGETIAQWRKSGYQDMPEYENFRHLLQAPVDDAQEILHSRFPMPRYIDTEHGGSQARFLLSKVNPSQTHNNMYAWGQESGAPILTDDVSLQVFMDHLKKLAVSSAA
UniProt Q15366, whole entry: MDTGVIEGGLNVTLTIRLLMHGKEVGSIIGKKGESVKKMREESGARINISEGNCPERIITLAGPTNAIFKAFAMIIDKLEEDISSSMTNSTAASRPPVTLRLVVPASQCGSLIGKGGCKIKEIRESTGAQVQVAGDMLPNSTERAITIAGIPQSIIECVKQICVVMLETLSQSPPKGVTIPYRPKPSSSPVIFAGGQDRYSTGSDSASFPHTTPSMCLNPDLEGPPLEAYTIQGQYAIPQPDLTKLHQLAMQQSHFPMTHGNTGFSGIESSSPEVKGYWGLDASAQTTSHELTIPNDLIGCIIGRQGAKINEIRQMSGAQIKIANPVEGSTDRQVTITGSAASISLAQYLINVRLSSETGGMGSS
UniProt Q2YD98, whole entry: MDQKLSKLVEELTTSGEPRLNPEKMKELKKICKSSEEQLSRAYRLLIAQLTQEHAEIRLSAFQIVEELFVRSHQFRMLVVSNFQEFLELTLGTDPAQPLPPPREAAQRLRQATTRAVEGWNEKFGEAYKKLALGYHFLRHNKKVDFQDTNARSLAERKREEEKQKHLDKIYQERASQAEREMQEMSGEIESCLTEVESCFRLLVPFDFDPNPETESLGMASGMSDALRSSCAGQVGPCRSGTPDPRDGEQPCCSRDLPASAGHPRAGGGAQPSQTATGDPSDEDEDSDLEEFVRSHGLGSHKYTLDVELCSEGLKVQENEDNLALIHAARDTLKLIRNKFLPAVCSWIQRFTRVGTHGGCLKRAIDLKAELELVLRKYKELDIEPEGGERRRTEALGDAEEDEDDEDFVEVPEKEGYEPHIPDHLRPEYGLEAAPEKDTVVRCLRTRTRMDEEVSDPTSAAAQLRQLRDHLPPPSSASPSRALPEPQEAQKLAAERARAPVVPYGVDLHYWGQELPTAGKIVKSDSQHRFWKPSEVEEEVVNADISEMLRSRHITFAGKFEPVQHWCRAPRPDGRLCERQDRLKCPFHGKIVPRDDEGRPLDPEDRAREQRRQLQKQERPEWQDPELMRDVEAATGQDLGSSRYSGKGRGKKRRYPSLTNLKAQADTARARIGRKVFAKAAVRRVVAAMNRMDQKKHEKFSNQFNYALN
UniProt Q16594, whole entry: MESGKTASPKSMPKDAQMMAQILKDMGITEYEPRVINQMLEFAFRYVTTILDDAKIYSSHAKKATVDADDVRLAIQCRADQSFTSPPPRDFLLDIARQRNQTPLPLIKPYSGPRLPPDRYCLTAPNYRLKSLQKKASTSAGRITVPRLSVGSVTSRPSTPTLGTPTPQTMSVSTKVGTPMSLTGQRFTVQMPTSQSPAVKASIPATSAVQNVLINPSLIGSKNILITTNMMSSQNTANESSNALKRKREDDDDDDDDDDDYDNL
UniProt Q30KQ5: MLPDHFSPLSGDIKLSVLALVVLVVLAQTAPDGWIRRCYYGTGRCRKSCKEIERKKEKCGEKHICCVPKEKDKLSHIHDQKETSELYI

Here are results for eleven targets from the supplement of paper PMC12819154, “High-throughput peptide-centric local stability assay extends protein–ligand identification to membrane proteins, tissues and bacteria” (Nature Structural & Molecular Biology, 2025).

Compound in this test: Cc1nc(Nc2ncc(C(=O)Nc3c(C)cccc3Cl)s2)cc(N2CCN(CCO)CC2)n1 [dasatinib]
Briefly: log2 fold change of tryptic peptide abundance, ligand vs vehicle (limited proteolysis) (log2 ratio); higher = more trypsin-susceptible (destabilized). To be noted: ligand concentration: 5 uM; sample: K562 cleared lysate.
For the target “IQCB1 (peptide sequence: HIQAPWWK, peptide start residue: 559) (UniProt Q15051)”, the log2 fold change is 0.275.
The figure for “NRF1 (peptide sequence: RPHVFESNPSIR, peptide start residue: 93) (UniProt Q16656)” is -0.38.
For “UniProt Q15651 (peptide sequence: KSPENTEGK, peptide start residue: 5)”, the log2 fold change was found to be 0.126.
Under “UBE2S (peptide sequence: LLLGKDFPASPPK, peptide start residue: 64) (UniProt Q16763)” stands -0.175; under “RAB11B (peptide sequence: NILTEIYR, peptide start residue: 167) (UniProt Q15907)”, 0.185; under “UniProt Q15046 (peptide sequence: FELFVMKK, peptide start residue: 486)”, -0.251.
As for “SEC23A (peptide sequence: HLLQAPVDDAQEILHSR, peptide start residue: 683) (UniProt Q15436)”, the log2 fold change was 0.445.
Regarding “PCBP2 (peptide sequence: GVTIPYRPK, peptide start residue: 177) (UniProt Q15366)”, the log2 fold change came out at 0.0864.
Under “UniProt Q2YD98 (peptide sequence: LVEELTTSGEPR, peptide start residue: 8)” stands -0.253; under “TAF9 (peptide sequence: DMGITEYEPR, peptide start residue: 25) (UniProt Q16594)”, -0.192; under “UniProt Q30KQ5 (peptide sequence: SCKEIER, peptide start residue: 48)”, -0.0976.
